# From PMC9394119
# T1: GST-tagged Fbxo45 (UniProt P0C2W1)
# T1 sequence: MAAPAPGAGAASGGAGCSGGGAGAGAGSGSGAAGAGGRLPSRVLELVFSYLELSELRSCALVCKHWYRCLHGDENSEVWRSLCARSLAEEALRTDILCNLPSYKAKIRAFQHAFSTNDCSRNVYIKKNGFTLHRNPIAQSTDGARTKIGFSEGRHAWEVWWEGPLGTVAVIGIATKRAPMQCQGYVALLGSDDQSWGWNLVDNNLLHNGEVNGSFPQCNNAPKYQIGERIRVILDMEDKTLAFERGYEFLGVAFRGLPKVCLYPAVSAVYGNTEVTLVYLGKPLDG
# Key:
# [1] = target: T1, GST-tagged Fbxo45; test: pull-down; GST-Fbxo45 purified on glutathione Sepharose 4B, incubated overnight at 4 °C with RIPA buffer II lysates of HEK293T cells expressing Flag-tagged STEP46 or its mutants; immunoblot; only the target purified
# [2] = target: Flag-tagged STEP46 S49E; test: co-IP; HEK293T co-transfected with Flag-tagged STEP46 and HA-tagged Fbxo45 for 48 h; lysis in RIPA buffer II, immunoprecipitated with Flag M2 antibody, immunoblot
# [3] = target: Flag-tagged STEP46 WT; test: as above
# [4] = target: Flag-tagged STEP46 S49A; test: as above
binding [1],binding [2],binding [3],binding [4],Molecule
binds,–,–,–,Flag-tagged STEP46 S49A
binds,–,–,–,Flag-tagged STEP46 WT
binds weakly,–,–,–,Flag-tagged STEP46 S49E
–,binds weakly,binds,binds,"HA-tagged Fbxo45 WT (protein, UniProt P0C2W1 1-286) MAAPAPGAGAASGGAGCSGGGAGAGAGSGSGAAGAGGRLPSRVLELVFSYLELSELRSCALVCKHWYRCLHGDENSEVWRSLCARSLAEEALRTDILCNLPSYKAKIRAFQHAFSTNDCSRNVYIKKNGFTLHRNPIAQSTDGARTKIGFSEGRHAWEVWWEGPLGTVAVIGIATKRAPMQCQGYVALLGSDDQSWGWNLVDNNLLHNGEVNGSFPQCNNAPKYQIGERIRVILDMEDKTLAFERGYEFLGVAFRGLPKVCLYPAVSAVYGNTEVTLVYLGKPLDG"

# These are yes or no findings as the source states them, for the method shown. Binding seen in cells or lysates may run through a third protein. A result given as binding can be weak or reduced; the word gives no strength. Tags and fused reporters may be left off the sequences shown.
